# Experimental data taken from the supplement of paper PMC8728848.
# The list shows a part of the results.
# Tests used:
# Experiment in all cases: glycan array binding signal (z-score within array); higher = stronger binding
# Settings in all cases: glycan notation: IUPAC condensed, linker removed
# [1] = biological target: Neu5Ac(a2-6)GlcNAc(b1-4)GlcNAc(b1-4)GlcNAc
# In short: (§1)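 Glycan array binding is given as a within-array Z-score, which can be read as non-binding when negative. The arrays, 3228 of them, came from the Consortium for Functional Glycomics database and were retained only where the protein sequence was available. Z-scores were averaged across arrays of the same protein sequence at different concentrations or buffers and across linkers.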
# Neu5Ac(a2-8)Neu5Ac = biological target: Neu5Ac(a2-8)Neu5Ac
# In short: as §1
# [2] = biological target: Neu5Ac(a2-8)Neu5Ac(a2-3)Gal(b1-3)GalNAc(b1-4)[Neu5Ac(a2-3)]Gal(b1-4)Glc
# In short: as §1
# [3] = biological target: Neu5Ac(a2-8)Neu5Ac(a2-3)Gal(b1-3)GalNAc(b1-4)[Neu5Ac(a2-8)Neu5Ac(a2-3)]Gal(b1-4)Glc
# In short: as §1
# [4] = biological target: Neu5Ac(a2-8)Neu5Ac(a2-3)Gal(b1-4)Glc
# In short: as §1
# [5] = biological target: Neu5Ac(a2-8)Neu5Ac(a2-3)Gal(b1-4)GlcNAc
# In short: as §1
# [6] = biological target: Neu5Ac(a2-8)Neu5Ac(a2-3)[Gal(b1-3)GalNAc(b1-4)]Gal(b1-4)Glc
# In short: as §1
# [7] = biological target: Neu5Ac(a2-8)Neu5Ac(a2-3)[GalNAc(b1-4)]Gal(b1-4)Glc
# In short: as §1
# [8] = biological target: Neu5Ac(a2-8)Neu5Ac(a2-8)Neu5Ac
# In short: as §1
# [9] = biological target: Neu5Ac(a2-8)Neu5Ac(a2-8)Neu5Ac(a2-3)Gal(b1-4)Glc
# In short: as §1
# [10] = biological target: Neu5Ac(a2-8)Neu5Ac(a2-8)Neu5Ac(a2-3)[Gal(b1-3)GalNAc(b1-4)]Gal(b1-4)Glc
# In short: as §1
# [11] = biological target: Neu5Ac(a2-8)Neu5Ac(a2-8)Neu5Ac(a2-3)[GalNAc(b1-4)]Gal(b1-4)Glc
# In short: as §1
# [12] = biological target: Neu5Ac(a2-8)Neu5Ac(a2-8)Neu5Ac(a2-8)Neu5Ac(a2-3)[GalNAc(b1-4)]Gal(b1-4)Glc
# In short: as §1
# [13] = biological target: Neu5Ac(a2-8)Neu5Gc(a2-3)Gal(b1-4)GlcNAc
# In short: as §1
# [14] = biological target: Neu5Ac(b2-6)Gal(b1-4)GlcNAc
# In short: as §1
# Neu5Ac(b2-6)GalNAc = biological target: Neu5Ac(b2-6)GalNAc
# In short: as §1
# [15] = biological target: Neu5Ac9Ac(a2-3)Gal(b1-4)GlcNAc
# In short: as §1
# [16] = biological target: Neu5Ac9Ac(a2-6)Gal(b1-4)GlcNAc
# In short: as §1
# [17] = biological target: Neu5Gc(a2-3)Gal(b1-3)GlcNAc
# In short: as §1
# [18] = biological target: Neu5Gc(a2-3)Gal(b1-3)[Fuc(a1-4)]GlcNAc
# In short: as §1
# Neu5Gc(a2-3)Gal(b1-4)Glc = biological target: Neu5Gc(a2-3)Gal(b1-4)Glc
# In short: as §1
# [19] = biological target: Neu5Gc(a2-3)Gal(b1-4)GlcNAc
# In short: as §1
# [20] = biological target: Neu5Gc(a2-3)Gal(b1-4)GlcNAc(b1-3)Gal(b1-4)GlcNAc(b1-2)Man(a1-3)[Neu5Gc(a2-3)Gal(b1-4)GlcNAc(b1-3)Gal(b1-4)GlcNAc(b1-2)Man(a1-6)]Man(b1-4)GlcNAc(b1-4)GlcNAc
# In short: as §1
# [21] = biological target: Neu5Gc(a2-3)Gal(b1-4)[Fuc(a1-3)]GlcNAc
# In short: as §1
# [22] = biological target: Neu5Gc(a2-6)Gal(b1-4)GlcNAc
# In short: as §1
# Neu5Gc(a2-6)GalNAc = biological target: Neu5Gc(a2-6)GalNAc
# In short: as §1
# [23] = biological target: Neu5Gc(a2-8)Neu5Ac(a2-3)Gal(b1-4)GlcNAc
# In short: as §1
# [24] = biological target: Neu5Gc(a2-8)Neu5Gc(a2-3)Gal(b1-4)GlcNAc
# In short: as §1
# [25] = biological target: Neu5Gc(a2-8)Neu5Gc(a2-3)Gal(b1-4)GlcNAc(b1-3)Gal(b1-4)GlcNAc
# In short: as §1
# [26] = biological target: Neu5Gc(a2-8)Neu5Gc(a2-6)Gal(b1-4)GlcNAc
# In short: as §1
# [27] = biological target: Neu5Gc(b2-6)Gal(b1-4)GlcNAc
# In short: as §1
binder,measurement,setting,value
"Protein L(A-C2) (Finegoldia magna), Q51912 (protein) ADEPIDLEKLEEKRDKENVGNLPKFDNEVKDGSENPMAKYPDFDDEASTRFETENNEFEEKKVVSDNFFDQSEHPFVENKEETPETPETDSEEEVTIKANLIFANGSTQTAEFKGTFEKATSEAYAYADTLKKDNGEYTVDVADKGYTLNIKFAGKEKTPEEPKEEVTIKANLIYADGKTQTAEFKGTFEEATAEAYRYADALKKDNGEYTVDVADKGYTLNIKFAGKEKTPEEPKEEVTIKANLIYADGKTQTAEFKGTFEEATAEAYRYADLLAKENGKYTVDVADKGYTLNIKFAGKEKTPEEPKEEVTIKANLIYADGKTQTAEFKGTFAEATAEAYRYADLLAKENGKYTADLEDGGYTINIRFAGKKVDEKPEEKEQVTIKENIYFEDGTVQTATFKGTFAEATAEAYRYADLLSKEHGKYTADLEDGGYTINIRFAGKEEPEETPEKPEVQDGYASYEEAEAAAKEALKNDDVNKSYTIRQGADGRYYYVLSPVEAEEEKPEAQNGYATYEEAEAAAKKALENDPINKSYSIRQGADGRYYYVLSPVEAE",glycan array binding signal (z-score),[1],-0.71
same,glycan array binding signal (z-score),Neu5Ac(a2-8)Neu5Ac,-0.275
same,glycan array binding signal (z-score),[2],-0.888
same,glycan array binding signal (z-score),[3],-0.257
same,glycan array binding signal (z-score),[4],-1.31
same,glycan array binding signal (z-score),[5],-1.02
same,glycan array binding signal (z-score),[6],0.898
same,glycan array binding signal (z-score),[7],0.868
same,glycan array binding signal (z-score),[8],-0.849
same,glycan array binding signal (z-score),[9],-0.481
same,glycan array binding signal (z-score),[10],-0.46
same,glycan array binding signal (z-score),[11],-0.494
same,glycan array binding signal (z-score),[12],0.283
same,glycan array binding signal (z-score),[13],-0.658
same,glycan array binding signal (z-score),[14],-0.736
same,glycan array binding signal (z-score),Neu5Ac(b2-6)GalNAc,-0.832
same,glycan array binding signal (z-score),[15],-0.66
same,glycan array binding signal (z-score),[16],-0.809
same,glycan array binding signal (z-score),[17],-0.028
same,glycan array binding signal (z-score),[18],-0.858
same,glycan array binding signal (z-score),Neu5Gc(a2-3)Gal(b1-4)Glc,-0.493
same,glycan array binding signal (z-score),[19],-1.16
same,glycan array binding signal (z-score),[20],0.473
same,glycan array binding signal (z-score),[21],-0.672
same,glycan array binding signal (z-score),[22],-0.86
same,glycan array binding signal (z-score),Neu5Gc(a2-6)GalNAc,-0.164
same,glycan array binding signal (z-score),[23],0.183
same,glycan array binding signal (z-score),[24],-0.82
same,glycan array binding signal (z-score),[25],-1.01
same,glycan array binding signal (z-score),[26],0.244
same,glycan array binding signal (z-score),[27],-0.275

# Fetched one by one from the entries so far (two):
binder,measurement,setting,value
"Protein L(A-C2) (Finegoldia magna), Q51912 (protein) ADEPIDLEKLEEKRDKENVGNLPKFDNEVKDGSENPMAKYPDFDDEASTRFETENNEFEEKKVVSDNFFDQSEHPFVENKEETPETPETDSEEEVTIKANLIFANGSTQTAEFKGTFEKATSEAYAYADTLKKDNGEYTVDVADKGYTLNIKFAGKEKTPEEPKEEVTIKANLIYADGKTQTAEFKGTFEEATAEAYRYADALKKDNGEYTVDVADKGYTLNIKFAGKEKTPEEPKEEVTIKANLIYADGKTQTAEFKGTFEEATAEAYRYADLLAKENGKYTVDVADKGYTLNIKFAGKEKTPEEPKEEVTIKANLIYADGKTQTAEFKGTFAEATAEAYRYADLLAKENGKYTADLEDGGYTINIRFAGKKVDEKPEEKEQVTIKENIYFEDGTVQTATFKGTFAEATAEAYRYADLLSKEHGKYTADLEDGGYTINIRFAGKEEPEETPEKPEVQDGYASYEEAEAAAKEALKNDDVNKSYTIRQGADGRYYYVLSPVEAEEEKPEAQNGYATYEEAEAAAKKALENDPINKSYSIRQGADGRYYYVLSPVEAE",glycan array binding signal (z-score),[13],-0.658
same,glycan array binding signal (z-score),[23],0.183
